In this assay the target is nucleoporin TPR (human (endogenous in U2OS)) (UniProt P12270). Nature of the assay: proximity ligation.

By UniProt entry, the sequences of proteins in these tests, tags left out.
UniProt P12270: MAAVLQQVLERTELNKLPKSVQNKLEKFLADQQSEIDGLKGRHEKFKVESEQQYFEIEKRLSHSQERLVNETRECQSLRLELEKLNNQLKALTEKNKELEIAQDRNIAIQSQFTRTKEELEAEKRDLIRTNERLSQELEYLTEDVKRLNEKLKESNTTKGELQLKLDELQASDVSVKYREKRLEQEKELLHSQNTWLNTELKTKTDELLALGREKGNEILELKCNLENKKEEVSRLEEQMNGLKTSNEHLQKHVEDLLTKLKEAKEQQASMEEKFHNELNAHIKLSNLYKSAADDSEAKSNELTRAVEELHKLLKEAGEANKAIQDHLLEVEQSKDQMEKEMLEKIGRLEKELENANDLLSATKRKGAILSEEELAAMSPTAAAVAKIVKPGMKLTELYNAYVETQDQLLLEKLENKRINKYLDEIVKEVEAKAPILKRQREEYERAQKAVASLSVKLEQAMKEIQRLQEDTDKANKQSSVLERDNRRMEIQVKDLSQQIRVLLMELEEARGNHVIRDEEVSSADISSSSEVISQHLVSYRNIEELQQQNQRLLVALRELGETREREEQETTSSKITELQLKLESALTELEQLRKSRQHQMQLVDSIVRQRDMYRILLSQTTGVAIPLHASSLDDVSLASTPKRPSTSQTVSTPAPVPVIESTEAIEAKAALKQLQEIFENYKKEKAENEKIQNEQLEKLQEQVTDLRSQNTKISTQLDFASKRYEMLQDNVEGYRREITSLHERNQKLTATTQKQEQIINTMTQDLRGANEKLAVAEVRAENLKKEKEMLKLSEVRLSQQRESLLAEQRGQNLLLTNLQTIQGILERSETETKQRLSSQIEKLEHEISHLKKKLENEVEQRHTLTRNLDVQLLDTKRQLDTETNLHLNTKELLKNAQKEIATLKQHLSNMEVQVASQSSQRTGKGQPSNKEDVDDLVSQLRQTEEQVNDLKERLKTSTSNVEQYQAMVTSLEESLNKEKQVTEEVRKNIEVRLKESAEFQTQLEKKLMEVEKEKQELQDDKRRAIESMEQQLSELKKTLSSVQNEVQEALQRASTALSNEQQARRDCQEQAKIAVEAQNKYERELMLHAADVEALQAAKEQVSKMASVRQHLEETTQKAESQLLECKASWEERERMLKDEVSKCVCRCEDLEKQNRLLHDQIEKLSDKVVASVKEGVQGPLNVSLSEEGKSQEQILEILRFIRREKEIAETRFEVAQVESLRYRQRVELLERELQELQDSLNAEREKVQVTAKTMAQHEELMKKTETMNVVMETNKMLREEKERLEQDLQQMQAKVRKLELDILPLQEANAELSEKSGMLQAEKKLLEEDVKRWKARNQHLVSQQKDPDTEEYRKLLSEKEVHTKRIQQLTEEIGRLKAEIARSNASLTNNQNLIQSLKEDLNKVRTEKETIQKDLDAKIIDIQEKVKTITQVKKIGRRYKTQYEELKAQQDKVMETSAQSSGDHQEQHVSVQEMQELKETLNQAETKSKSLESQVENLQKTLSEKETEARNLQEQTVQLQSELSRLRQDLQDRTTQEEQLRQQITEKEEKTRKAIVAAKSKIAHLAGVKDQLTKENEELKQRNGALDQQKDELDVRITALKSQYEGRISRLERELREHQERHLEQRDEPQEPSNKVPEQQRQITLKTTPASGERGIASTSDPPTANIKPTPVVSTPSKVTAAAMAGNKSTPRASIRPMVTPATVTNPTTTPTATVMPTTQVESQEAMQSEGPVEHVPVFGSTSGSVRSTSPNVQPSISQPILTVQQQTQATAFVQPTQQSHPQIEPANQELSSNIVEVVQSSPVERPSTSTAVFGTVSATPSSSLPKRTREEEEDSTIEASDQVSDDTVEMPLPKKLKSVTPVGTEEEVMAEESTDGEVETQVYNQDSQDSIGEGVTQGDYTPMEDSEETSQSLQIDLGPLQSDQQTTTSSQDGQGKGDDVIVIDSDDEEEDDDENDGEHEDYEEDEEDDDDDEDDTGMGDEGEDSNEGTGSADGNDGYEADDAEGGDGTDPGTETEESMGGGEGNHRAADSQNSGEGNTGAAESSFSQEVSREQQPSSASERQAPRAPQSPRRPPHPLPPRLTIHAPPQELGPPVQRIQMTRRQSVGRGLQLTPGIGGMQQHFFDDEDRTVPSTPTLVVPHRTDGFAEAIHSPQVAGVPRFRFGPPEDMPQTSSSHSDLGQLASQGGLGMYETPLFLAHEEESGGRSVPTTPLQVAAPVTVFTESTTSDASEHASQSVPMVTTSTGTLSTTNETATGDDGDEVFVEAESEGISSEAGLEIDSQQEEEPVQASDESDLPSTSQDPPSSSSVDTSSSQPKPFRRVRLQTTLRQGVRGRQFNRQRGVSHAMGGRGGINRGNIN
UniProt Q9UQE7: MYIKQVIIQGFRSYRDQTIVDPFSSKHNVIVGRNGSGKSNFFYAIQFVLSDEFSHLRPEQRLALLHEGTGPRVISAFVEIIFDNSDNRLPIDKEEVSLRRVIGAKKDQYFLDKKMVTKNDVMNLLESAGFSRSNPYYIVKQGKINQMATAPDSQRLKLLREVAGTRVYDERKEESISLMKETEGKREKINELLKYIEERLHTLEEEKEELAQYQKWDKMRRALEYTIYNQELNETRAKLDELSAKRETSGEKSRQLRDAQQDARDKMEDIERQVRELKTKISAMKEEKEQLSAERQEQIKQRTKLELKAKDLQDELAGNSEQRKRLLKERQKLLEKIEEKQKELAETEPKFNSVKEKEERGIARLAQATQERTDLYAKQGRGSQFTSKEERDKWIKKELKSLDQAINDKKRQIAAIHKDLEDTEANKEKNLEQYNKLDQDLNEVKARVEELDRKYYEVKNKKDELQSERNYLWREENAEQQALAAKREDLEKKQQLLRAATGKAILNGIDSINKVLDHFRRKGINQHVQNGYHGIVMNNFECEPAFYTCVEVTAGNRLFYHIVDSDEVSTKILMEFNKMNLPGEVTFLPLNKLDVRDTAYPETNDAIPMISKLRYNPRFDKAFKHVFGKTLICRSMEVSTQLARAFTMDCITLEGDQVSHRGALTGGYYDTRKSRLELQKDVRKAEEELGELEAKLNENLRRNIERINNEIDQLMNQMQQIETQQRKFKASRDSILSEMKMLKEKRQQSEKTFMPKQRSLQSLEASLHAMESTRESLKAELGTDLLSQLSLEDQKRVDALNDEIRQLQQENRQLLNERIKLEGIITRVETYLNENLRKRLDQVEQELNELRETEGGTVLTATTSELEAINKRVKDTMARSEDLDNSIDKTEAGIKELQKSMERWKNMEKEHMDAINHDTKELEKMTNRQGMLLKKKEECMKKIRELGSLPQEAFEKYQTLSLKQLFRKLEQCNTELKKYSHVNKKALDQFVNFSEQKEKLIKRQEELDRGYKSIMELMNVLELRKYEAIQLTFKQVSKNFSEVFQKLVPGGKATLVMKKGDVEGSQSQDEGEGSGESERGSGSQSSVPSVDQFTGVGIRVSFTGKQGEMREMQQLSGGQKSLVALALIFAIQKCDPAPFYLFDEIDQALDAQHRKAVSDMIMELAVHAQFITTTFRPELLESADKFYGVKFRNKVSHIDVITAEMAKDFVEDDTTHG
UniProt Q09472: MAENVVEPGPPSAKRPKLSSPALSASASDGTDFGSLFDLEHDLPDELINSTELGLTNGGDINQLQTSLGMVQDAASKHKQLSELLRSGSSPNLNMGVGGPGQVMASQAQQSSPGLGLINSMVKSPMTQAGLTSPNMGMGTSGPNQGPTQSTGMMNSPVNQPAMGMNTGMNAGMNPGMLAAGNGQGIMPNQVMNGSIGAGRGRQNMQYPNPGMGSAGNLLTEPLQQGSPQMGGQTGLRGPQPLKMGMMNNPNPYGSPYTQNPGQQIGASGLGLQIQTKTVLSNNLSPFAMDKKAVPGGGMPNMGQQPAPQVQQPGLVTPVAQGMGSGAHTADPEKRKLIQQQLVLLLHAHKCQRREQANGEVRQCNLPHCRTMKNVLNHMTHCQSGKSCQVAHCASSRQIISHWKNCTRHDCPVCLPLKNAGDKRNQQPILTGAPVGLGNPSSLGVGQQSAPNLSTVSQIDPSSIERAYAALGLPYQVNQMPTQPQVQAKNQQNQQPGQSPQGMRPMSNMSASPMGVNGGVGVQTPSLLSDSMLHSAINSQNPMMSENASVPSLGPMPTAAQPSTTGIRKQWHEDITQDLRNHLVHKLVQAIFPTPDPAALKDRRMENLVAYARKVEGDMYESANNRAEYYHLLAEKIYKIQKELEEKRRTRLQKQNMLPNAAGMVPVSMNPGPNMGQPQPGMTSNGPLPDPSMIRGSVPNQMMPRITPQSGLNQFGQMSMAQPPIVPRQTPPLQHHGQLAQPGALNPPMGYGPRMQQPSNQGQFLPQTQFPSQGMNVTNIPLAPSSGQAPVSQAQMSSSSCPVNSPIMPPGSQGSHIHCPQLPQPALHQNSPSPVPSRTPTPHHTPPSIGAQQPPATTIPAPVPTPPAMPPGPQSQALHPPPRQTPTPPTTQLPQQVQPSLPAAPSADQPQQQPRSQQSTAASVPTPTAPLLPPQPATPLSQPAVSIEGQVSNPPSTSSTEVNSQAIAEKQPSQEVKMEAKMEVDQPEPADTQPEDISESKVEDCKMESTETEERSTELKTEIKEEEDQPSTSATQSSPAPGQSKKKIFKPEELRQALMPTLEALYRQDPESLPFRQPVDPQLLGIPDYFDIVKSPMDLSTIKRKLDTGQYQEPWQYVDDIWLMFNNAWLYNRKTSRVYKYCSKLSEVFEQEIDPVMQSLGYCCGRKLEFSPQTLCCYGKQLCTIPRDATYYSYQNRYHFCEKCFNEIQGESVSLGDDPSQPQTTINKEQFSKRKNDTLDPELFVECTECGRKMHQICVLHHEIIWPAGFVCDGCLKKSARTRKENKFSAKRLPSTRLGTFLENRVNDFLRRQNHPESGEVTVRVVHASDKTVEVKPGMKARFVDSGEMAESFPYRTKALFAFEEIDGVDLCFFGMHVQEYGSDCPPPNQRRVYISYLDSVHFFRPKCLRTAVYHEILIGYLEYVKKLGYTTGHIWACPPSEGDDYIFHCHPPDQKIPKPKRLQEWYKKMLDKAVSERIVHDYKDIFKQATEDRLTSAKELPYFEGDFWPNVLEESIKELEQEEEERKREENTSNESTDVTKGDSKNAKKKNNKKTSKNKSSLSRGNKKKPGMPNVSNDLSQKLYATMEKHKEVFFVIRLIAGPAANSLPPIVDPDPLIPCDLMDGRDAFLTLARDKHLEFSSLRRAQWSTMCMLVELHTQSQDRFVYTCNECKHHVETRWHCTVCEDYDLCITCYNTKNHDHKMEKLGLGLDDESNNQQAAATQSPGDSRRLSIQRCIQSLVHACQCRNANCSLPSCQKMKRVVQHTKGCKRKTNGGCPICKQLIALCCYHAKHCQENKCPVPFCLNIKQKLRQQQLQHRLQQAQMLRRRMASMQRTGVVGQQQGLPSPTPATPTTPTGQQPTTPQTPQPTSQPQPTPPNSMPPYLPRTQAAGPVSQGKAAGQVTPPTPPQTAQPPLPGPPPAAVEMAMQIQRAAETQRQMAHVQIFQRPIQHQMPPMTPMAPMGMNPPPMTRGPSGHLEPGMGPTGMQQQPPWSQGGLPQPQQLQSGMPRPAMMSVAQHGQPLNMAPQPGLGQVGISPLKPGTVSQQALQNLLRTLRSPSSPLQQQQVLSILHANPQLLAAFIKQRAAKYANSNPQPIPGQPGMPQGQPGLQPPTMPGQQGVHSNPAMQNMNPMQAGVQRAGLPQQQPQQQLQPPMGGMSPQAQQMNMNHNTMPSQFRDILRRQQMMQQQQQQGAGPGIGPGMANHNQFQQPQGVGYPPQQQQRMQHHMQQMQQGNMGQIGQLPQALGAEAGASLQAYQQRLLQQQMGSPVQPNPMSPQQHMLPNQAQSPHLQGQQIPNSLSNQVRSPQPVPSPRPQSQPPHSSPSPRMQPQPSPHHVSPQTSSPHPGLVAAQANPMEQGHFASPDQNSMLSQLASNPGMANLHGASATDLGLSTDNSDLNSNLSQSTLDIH

No constants are given. Whether binding was seen depends on the method and setting. Binding seen in cells or lysates may run through a third protein. Some entries that bind do so weakly or less than the wild type.

For the substance Med1 (from UniProt Q15648 1-1581), the binding entry is recorded as “binds”. To SMC3 (from UniProt Q9UQE7 1-1217) belongs “binds”; to p300 (from UniProt Q09472 1-2414), “binds”.

Source of the values: article doi:10.1101/2021.05.10.443506.
